Experimental data: US20050042220A1 (GENETICS INSTITUTE, published 2005)
No constants are given. Whether binding was seen depends on the method and setting. Some entries that bind do so weakly or less than the wild type. Sequences can lack the tags named with a protein.

Legend:
[1] = molecular target: T1, biotinylated N terminal His/Flag tagged human IL-22 (human); experiment: ELISA, bio-IL-22 on streptavidin plates (FIG. 6B)
T1 sequence (chain, biotinylated with EZ-Link Sulfo-NHS-Biotin (sites not stated)): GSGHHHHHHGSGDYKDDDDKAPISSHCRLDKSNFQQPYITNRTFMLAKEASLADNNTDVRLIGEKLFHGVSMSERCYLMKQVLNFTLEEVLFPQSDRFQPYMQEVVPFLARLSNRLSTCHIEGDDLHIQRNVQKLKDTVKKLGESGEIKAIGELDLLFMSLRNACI

[2] = molecular target: T1, biotinylated N terminal His/Flag tagged human IL-22 (human); experiment: ELISA: bio-IL-22 (1 ug/ml) captured on streptavidin plates; receptor Fc in diluted CHO conditioned medium titrated; goat anti-human IgG-HRP, A450
[3] = molecular target: T1, biotinylated N terminal His/Flag tagged human IL-22 (human); experiment: ELISA, bio-IL-22 on streptavidin plates, anti-hIgG-HRP (FIG. 6B)
[4] = molecular target: T2, complex of bio-IL-22 bound to immobilized IL-22R-Fc (human) (UniProt Q8N6P7); experiment: indirect ELISA: 50 ng/ml IL-22R-Fc captured on anti-human IgG wells, bio-IL-22 (30 ng/ml) bound, washed, then 1 h with titrated IL-10R2-Fc; retained bio-IL-22 read with streptavidin-HRP, A450 (IL-10R2-Fc itself is not detected)
T2 sequence (chain, biotinylated with EZ-Link Sulfo-NHS-Biotin (sites not stated)) 1: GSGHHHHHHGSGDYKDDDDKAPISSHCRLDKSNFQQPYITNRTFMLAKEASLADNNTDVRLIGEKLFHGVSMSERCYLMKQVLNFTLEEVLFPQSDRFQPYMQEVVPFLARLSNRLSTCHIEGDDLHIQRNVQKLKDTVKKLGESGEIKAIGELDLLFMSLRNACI
T2 sequence (chain, biotinylated with EZ-Link Sulfo-NHS-Biotin (sites not stated)) 2: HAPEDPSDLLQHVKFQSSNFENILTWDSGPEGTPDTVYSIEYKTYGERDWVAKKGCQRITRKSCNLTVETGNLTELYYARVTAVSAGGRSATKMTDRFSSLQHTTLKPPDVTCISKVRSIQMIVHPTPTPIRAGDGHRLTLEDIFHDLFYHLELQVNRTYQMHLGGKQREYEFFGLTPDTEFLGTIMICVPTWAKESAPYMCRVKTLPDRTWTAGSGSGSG

[5] = molecular target: T2, complex of bio-IL-22 bound to immobilized IL-22R-Fc (human); experiment: ELISA, captured IL-22R-Fc, IL-10R2-Fc added together with bio-IL-22; read-out is bound bio-IL-22 (FIG. 9A)
[6] = molecular target: T2, complex of bio-IL-22 bound to immobilized IL-22R-Fc (human); experiment: ELISA, IL-10R2-Fc added after bio-IL-22 had bound captured IL-22R-Fc; read-out is retained bio-IL-22 (FIG. 9B)
[7] = molecular target: T2, complex of bio-IL-22 bound to immobilized IL-22R-Fc (human); experiment: indirect ELISA: 50 ng/ml IL-22R-Fc captured on anti-human IgG wells, blocked with 100 ug/ml human IgG; IL-10R2-Fc titrated together with bio-IL-22 (30 ng/ml); bound bio-IL-22 read with streptavidin-HRP, A450 (IL-10R2-Fc itself is not detected)
[8] = molecular target: T1, biotinylated N terminal His/Flag tagged human IL-22 (human); experiment: blocking ELISA: IL-22BP-Fc pre-incubated 30 min with bio-IL-22 (5 ng/ml), added to 50 ng/ml total Fc of co-expressed IL-22R-Fc/IL-10R2-Fc captured on anti-human IgG wells; bound bio-IL-22 read with streptavidin-HRP, A450; blocked partner IL-22R-Fc/IL-10R2-Fc
[9] = molecular target: T1, biotinylated N terminal His/Flag tagged human IL-22 (human); experiment: blocking ELISA: IL-22BP-Fc pre-incubated 30 min with bio-IL-22 (30 ng/ml), added to 50 ng/ml IL-22R-Fc captured on anti-human IgG wells; bound bio-IL-22 read with streptavidin-HRP, A450; blocked partner IL-22R-Fc

Measured: binding

B1: human IL-22R extracellular domain-Fc fusion homodimer (Fc fusion)
chain: HAPEDPSDLLQHVKFQSSNFENILTWDSGPEGTPDTVYSIEYKTYGERDWVAKKGCQRITRKSCNLTVETGNLTELYYARVTAVSAGGRSATKMTDRFSSLQHTTLKPPDVTCISKVRSIQMIVHPTPTPIRAGDGHRLTLEDIFHDLFYHLELQVNRTYQMHLGGKQREYEFFGLTPDTEFLGTIMICVPTWAKESAPYMCRVKTLPDRTWTAGSGSGSG
notes: extracellular domain; Used as CHO conditioned medium, not purified; also called IL-22R-Fc; IL-22RECD-Fc; not shown: human IgG1 Fc
binds: [1] | [2] | [3]

B2: human IL-10R2 extracellular domain-Fc fusion homodimer (Fc fusion)
chain: MVPPPENVRMNSVNFKNILQWESPAFAKGNLTFTAQYLSYRIFQDKCMNTTLTECDFSSLSKYGDHTLRVRAEFADEHSDWVNITFCPVDDTIIGPPGMQVEVLADSLHMRFLAPKIENEYETWTMKNVYNSWTYNVQYWKNGTDEKFQITPQYDFEVLRNLEPWTTYCVQVRGFLPDRNKAGEWSEPVCEQTTHDETVPSAGSGSGSG
notes: extracellular domain; Used as CHO conditioned medium, not purified; also called IL-10R2-Fc; IL-10R2ECD-Fc; not shown: human IgG1 Fc
binds: [4] | [5] | [6] | [7]

B3: human IL-22 binding protein-Fc fusion (Fc fusion)
chain: TQSTHESLKPQRVQFQSRNFHNILQWQPGRALTGNSSVYFVQYKIYGQRQWKNKEDCWGTQELSCDLTSETSDIQEPYYGRVRAASAGSYSEWSMTPRFTPWWETKIDPPVMNITQVNGSLLVILHAPNLPYRYQKEKNVSIEDYYELLYRVFIINNSLEKEQKVYEGAHRAVEIEALTPHSSYCVVAEIYQPMLDRRSQRSEERCVEIPAGSGSGSG
notes: Fc fusion homodimer, used as CHO conditioned medium; also called IL-22BP-Fc; huIL22BP-huFc; not shown: human IgG1 Fc
binds: [8] | [9]
